Assay results from US12503448B2, “Antibacterial and antiparasitic quinoxaline-2,3-diamine derivatives” (University College Cardiff Consultants Limited, priority 2019, dated 2025).

Assay: Metabolic stability in mouse liver microsomes

SMILES: CN1C(=O)CN=C(c2ccccc2)c2cc(Cl)ccc21 [Diazepam, reference compound]
- microsomal CLint at 1 μM (microsomes): 457 µL/min/mg

SMILES: CN(C)CCOC(c1ccccc1)c1ccccc1 [Diphenhydramine, reference compound]
- microsomal CLint at 1 μM (liver microsomes): 58.3 µL/min/mg
